This passage reports binding results from PMC9590148.

By UniProt entry, the sequences of proteins in these tests, tags left out.
UniProt P46937: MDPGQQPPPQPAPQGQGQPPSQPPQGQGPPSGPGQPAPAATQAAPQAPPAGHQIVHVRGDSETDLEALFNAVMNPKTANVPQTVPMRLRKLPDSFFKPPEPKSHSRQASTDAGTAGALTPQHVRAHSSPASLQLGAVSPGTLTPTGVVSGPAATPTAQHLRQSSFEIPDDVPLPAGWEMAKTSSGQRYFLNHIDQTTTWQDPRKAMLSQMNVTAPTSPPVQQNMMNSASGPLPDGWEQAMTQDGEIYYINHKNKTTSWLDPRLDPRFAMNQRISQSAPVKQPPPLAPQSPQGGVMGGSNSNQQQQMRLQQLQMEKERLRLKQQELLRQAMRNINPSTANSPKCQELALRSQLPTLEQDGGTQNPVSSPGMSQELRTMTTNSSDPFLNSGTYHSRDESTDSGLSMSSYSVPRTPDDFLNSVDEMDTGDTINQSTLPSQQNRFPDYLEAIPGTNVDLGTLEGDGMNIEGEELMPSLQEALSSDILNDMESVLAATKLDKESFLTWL
UniProt Q9BYM8: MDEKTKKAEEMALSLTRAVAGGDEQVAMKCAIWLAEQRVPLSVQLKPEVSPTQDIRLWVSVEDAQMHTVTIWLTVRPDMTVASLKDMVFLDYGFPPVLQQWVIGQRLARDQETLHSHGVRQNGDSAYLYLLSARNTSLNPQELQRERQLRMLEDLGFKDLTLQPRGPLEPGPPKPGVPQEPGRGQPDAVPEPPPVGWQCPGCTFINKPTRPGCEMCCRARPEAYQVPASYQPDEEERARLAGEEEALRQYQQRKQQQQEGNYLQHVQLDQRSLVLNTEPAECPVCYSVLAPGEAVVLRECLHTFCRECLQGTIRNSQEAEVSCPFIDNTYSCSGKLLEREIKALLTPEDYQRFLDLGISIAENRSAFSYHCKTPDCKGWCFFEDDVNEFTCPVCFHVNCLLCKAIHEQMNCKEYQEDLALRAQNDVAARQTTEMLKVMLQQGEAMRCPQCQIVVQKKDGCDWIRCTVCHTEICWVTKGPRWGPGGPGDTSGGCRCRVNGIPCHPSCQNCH

One experiment addresses Myc-YAP full-length (UniProt P46937). Nature of the experiment: co-IP; HEK293 cells co-transfected with Myc-YAP and Flag-RBCK1 (full-length or deletion mutants), NP-40 lysis buffer after 24 h; lysates precleared with IgG, IP with anti-Myc antibody, western blot with anti-Flag antibody; rabbit IgG as negative control.
The target of experiment [1] is YAP (Yes-associated protein), endogenous (human (endogenous in MDA-MB-231)) (UniProt P46937). Nature of the experiment: co-IP; endogenous proteins in total lysate of MDA-MB-231 cells (RIPA lysis buffer), precleared with rabbit IgG; IP with anti-RBCK1 or anti-YAP antibody, bound protein detected with anti-YAP or anti-RBCK1 antibody.

These are yes or no findings as the source states them, for the method shown. Binding seen in cells or lysates may run through a third protein. Some binding calls cover weakened binding; strength is not graded here.

In the case of “Flag-RBCK1 full-length (from UniProt Q9BYM8 1-510)”, in the experiment with Myc-YAP full-length, the binding entry is “binds”.

As to “RBCK1 (RANBP2-type and C3HC4-type zinc finger-containing 1), endogenous (from UniProt Q9BYM8 1-510)”, the binding entry in experiment [1] is on record as “binds”.
